The record followed here is PubChem BioAssay AID1508601 (ICCB-Longwood Screening Facility, Harvard Medical School, 2020).

The chains behind the UniProt entries cited, without tags or fusion partners.
UniProt P04637, whole entry: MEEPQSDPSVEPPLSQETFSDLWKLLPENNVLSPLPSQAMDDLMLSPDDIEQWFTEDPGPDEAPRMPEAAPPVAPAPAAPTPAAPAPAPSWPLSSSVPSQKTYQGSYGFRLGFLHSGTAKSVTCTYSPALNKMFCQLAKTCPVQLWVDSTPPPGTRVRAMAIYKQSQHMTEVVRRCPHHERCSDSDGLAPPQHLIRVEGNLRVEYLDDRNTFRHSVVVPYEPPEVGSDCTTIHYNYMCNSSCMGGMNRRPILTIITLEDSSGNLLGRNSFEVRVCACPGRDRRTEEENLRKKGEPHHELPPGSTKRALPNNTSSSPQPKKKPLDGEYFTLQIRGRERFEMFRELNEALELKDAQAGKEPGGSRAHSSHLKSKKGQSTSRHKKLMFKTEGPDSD

The nature of assay [1]: p53 stabilisation in HPV-positive human cells, imaging, p53-positive nuclei imaging, 24 h, 48 h (AID 1508601). As to conditions: 24/48 h, concentration not given here.
Assay [2] addresses Cellular tumor antigen p53 (Homo sapiens) (UniProt P04637). The description is as above. As to conditions: 24/48 h, measured here: p53 positive nuclei at 24 h, stronger effect = higher value, concentration not given here.

SMILES strings stand for the structures. The list shows a part of the results.

`OCCSCCO`: the results for the nuclei count, normalised in assay [1] (measured here: cell number at 24 h) and in assay [1] (measured here: cell number at 48 h) were 112% and 107%, respectively. The p53-positive nuclei, normalised in assay [2] worked out at 0.00292%.
